Values quoted from earlier work in patent US20220184234A1, “METABOLIC TARGETING OF LOW GRADE TUMORS” (SonalaSense, Inc., priority 2020, published 2022).
Where two headings read alike, the source gives them in different places.

Tested on: tumor
Details: rats, 20 mg/kg 5-ALA, cited from earlier work
[1] = sonication at 13.8 W/cm^2 for 20 minutes

In the case of `NCC(=O)CCC(=O)O` [5-ALA, 5-aminolevulinic acid], the “rise of tumor temperature” value [1] is listed as “about 2 °C”, the tumor temperature reached [1] is listed as 32 °C and the tumor temperature reached (sonication at 27.6 W/cm^2 for 20 minutes) is listed as “about 37 °C”.
